Results taken from patent US20220332799A1, “HERV INHIBITORS FOR USE IN TREATING TAUOPATHIES” (Deutsches Zentrum Für Neurodegenerative Erkrankungen E.V. …, priority 2019, published 2022).
Entries after “also recorded” stand apart in the source; their conditions may differ.

Tested on: N2a NM-HA^agg s2E
Assay: Nanoparticle measurement of EVs released by donor cells (ZetaView)
Assay type: cell-based, mouse
Settings: donor cells 10 μM, 3 d; vs DMSO

CC(C)CN(C[C@@H](O)[C@H](Cc1ccccc1)NC(=O)O[C@H]1CCOC1)S(=O)(=O)c1ccc(N)cc1 [Amprenavir]
secreted particle numbers: without affecting secreted particle numbers; also recorded: comparable amounts of particles as DMSO-treated cells
